{"source": "PubChem BioAssay AID743121, NCATS – 2013", "aim": "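Partners whose loss is lethal together with topoisomerase I blockade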 (primary screen)", "system": "MDA-MB-231 cells, a human breast cancer line", "knock-down reagent": "single siRNA against human genes, 20 nM siRNA (0.8 pmol per well)", "timing": "120 h (drug added 48 h after transfection, read 72 h later)", "conditions": "camptothecin 20 nM (about EC30) for 72 h; vehicle 0.1% DMSO in parallel plates", "measurement": "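Cell viability by ATP luminescence (CellTiter-Glo) as % of non-targeting siRNA wells, and the log2 ratio of viability without drug over viability with camptothecin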", "reading the numbers": "log2 vehicle/camptothecin viability: higher = stronger sensitisation to camptothecin", "call rule": "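Active genes have an RSA gene-level p-value below 0.001, computed from the ratios of their separate siRNAs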", "note": "This is a random part of about 26,000 deposited reagents. Of all reagents, 167 (0.63%) got an active call. 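Calls are per gene from RSA p-values that are not deposited; an individual active-marked siRNA can sensitise only weakly.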 Unmarked entries are inactive. The numbers tell different reagents against one gene apart. Further read-outs or replicates are left out here."}
{"Target gene":"KCNT2","reagent":1,"log2 vehicle/camptothecin viability":-0.101}
{"Target gene":"KCNT2","reagent":2,"log2 vehicle/camptothecin viability":-0.382}
{"Target gene":"KCNT2","reagent":3,"log2 vehicle/camptothecin viability":-0.166}
{"Target gene":"KCNT2","reagent":4,"log2 vehicle/camptothecin viability":-0.385}
{"Target gene":"PSMD14","reagent":1,"log2 vehicle/camptothecin viability":-0.116}
{"Target gene":"PSMD14","reagent":2,"log2 vehicle/camptothecin viability":-0.714}
{"Target gene":"PSMD14","reagent":3,"log2 vehicle/camptothecin viability":0.523}
{"Target gene":"BRPF3","reagent":1,"log2 vehicle/camptothecin viability":-0.371}
{"Target gene":"BRPF3","reagent":2,"log2 vehicle/camptothecin viability":0.0133}
{"Target gene":"BRPF3","reagent":3,"log2 vehicle/camptothecin viability":-0.433}
{"Target gene":"BRPF3","reagent":4,"log2 vehicle/camptothecin viability":-0.84}
{"Target gene":"DNAJC14","reagent":1,"log2 vehicle/camptothecin viability":0.0847}
{"Target gene":"DNAJC14","reagent":2,"log2 vehicle/camptothecin viability":0.845}
{"Target gene":"DNAJC14","reagent":3,"log2 vehicle/camptothecin viability":-0.517}
{"Target gene":"DNAJC14","reagent":4,"log2 vehicle/camptothecin viability":0.557}
{"Target gene":"ADAM9","reagent":1,"log2 vehicle/camptothecin viability":0.0455}
{"Target gene":"ADAM9","reagent":2,"log2 vehicle/camptothecin viability":-0.397}
{"Target gene":"ADAM9","reagent":3,"log2 vehicle/camptothecin viability":-0.0478}
{"Target gene":"CEP41","reagent":1,"log2 vehicle/camptothecin viability":-0.425}
{"Target gene":"CEP41","reagent":2,"log2 vehicle/camptothecin viability":-0.169}
{"Target gene":"CEP41","reagent":3,"log2 vehicle/camptothecin viability":-0.19}
{"Target gene":"CEP41","reagent":4,"log2 vehicle/camptothecin viability":0.0331}
{"Target gene":"PNLIPRP2","reagent":1,"log2 vehicle/camptothecin viability":0.0371}
{"Target gene":"PNLIPRP2","reagent":2,"log2 vehicle/camptothecin viability":-0.446}
{"Target gene":"PNLIPRP2","reagent":3,"log2 vehicle/camptothecin viability":-0.16}

Single entries from the list:
Entry of PNLIPRP2 #1 under “log2 vehicle/camptothecin viability”: 0.0371
PSMD14 #3, log2 vehicle/camptothecin viability → 0.523
Entry for PSMD14 #2 under “log2 vehicle/camptothecin viability”: -0.714
Result of CEP41 #4 under “log2 vehicle/camptothecin viability”: 0.0331
